Measurements taken from the supplement of paper PMC12067093, “Discovery and optimisation of a covalent ligand for TRIM25 and its application to targeted protein ubiquitination” (Chemical Science, 2025).
The other results are listed elsewhere or left out.

Protein sequences, listed by entry. Tags and fused reporters are not part of them. Lines headed by an entry give the natural chain unless they say otherwise; changes in a name come on top.
UniProt Q14849, whole entry, looked up: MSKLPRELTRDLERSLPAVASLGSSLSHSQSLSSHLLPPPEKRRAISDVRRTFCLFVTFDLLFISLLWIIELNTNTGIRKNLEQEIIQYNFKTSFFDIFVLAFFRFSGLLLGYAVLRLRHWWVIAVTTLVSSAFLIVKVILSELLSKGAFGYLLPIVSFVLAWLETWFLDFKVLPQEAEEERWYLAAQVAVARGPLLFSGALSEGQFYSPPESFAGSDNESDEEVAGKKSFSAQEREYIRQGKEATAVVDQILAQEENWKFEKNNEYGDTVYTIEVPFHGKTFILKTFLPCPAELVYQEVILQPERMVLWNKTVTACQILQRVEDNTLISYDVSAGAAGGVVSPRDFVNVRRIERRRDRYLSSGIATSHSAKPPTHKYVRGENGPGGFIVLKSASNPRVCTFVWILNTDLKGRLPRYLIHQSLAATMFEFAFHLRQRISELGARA
UniProt O75494: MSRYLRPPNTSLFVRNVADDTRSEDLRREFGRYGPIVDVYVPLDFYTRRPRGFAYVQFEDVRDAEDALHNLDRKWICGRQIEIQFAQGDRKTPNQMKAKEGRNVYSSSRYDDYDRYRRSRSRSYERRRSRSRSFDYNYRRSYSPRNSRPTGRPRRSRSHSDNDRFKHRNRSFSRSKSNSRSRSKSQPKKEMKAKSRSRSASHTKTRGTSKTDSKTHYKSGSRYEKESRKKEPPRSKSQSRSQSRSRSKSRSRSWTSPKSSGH
UniProt O43815: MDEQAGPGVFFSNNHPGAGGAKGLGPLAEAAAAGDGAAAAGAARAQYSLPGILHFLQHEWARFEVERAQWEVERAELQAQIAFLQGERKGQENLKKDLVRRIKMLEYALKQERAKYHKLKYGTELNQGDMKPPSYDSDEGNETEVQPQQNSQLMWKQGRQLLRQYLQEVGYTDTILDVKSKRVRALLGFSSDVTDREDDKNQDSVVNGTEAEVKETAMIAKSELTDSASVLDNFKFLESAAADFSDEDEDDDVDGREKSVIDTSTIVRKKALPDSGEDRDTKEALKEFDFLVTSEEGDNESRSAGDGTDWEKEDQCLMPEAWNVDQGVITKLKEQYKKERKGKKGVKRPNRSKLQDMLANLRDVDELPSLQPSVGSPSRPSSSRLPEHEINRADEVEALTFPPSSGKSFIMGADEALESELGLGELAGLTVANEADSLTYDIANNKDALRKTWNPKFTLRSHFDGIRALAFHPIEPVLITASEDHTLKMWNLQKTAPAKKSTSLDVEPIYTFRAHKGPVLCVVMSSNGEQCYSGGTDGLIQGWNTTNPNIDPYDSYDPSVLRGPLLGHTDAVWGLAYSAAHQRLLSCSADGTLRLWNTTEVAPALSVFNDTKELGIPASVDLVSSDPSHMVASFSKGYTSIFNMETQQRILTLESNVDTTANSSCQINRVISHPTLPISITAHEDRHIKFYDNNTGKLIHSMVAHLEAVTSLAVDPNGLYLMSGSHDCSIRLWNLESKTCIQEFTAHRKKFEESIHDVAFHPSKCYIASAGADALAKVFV
UniProt Q9UH65: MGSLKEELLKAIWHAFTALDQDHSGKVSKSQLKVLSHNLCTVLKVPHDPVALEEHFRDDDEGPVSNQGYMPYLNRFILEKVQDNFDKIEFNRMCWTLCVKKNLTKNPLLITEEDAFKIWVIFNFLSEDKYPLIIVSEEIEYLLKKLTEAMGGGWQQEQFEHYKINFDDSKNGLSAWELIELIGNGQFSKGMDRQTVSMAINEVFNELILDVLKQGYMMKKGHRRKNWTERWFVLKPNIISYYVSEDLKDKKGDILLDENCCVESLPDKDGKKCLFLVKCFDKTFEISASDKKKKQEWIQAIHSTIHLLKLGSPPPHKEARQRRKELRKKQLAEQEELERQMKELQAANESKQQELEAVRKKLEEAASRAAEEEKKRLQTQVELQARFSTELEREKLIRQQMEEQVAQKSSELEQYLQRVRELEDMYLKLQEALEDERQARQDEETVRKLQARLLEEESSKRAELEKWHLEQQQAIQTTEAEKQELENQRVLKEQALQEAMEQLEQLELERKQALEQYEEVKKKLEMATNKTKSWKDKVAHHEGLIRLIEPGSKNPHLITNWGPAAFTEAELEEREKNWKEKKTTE
UniProt O60232: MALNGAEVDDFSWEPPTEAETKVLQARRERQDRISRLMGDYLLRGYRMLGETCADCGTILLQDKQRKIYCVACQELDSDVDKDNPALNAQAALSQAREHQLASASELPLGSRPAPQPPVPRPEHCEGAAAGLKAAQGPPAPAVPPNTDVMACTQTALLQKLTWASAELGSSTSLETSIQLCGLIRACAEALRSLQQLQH
UniProt Q8TCJ2: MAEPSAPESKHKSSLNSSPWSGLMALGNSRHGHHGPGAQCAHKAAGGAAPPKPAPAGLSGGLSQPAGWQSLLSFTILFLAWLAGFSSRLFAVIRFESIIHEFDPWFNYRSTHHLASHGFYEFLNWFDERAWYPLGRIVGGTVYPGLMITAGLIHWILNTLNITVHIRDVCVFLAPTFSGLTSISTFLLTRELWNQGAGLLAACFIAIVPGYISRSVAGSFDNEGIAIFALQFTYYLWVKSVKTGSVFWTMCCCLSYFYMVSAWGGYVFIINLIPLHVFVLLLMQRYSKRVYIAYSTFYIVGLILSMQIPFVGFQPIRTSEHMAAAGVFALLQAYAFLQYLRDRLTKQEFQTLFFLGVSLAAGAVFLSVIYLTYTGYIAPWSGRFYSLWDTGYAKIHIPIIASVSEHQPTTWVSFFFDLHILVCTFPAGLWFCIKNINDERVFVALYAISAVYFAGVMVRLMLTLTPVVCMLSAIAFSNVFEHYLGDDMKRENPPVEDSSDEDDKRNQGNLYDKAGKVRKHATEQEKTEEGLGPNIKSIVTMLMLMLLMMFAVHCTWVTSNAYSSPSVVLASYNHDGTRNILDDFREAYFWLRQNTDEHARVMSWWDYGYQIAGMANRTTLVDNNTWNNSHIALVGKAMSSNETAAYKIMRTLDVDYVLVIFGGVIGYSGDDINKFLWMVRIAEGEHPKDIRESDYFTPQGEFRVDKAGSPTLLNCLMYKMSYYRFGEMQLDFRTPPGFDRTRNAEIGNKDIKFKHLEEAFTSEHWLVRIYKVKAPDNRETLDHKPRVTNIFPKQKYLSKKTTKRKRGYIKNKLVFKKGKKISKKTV
UniProt Q8NFX7: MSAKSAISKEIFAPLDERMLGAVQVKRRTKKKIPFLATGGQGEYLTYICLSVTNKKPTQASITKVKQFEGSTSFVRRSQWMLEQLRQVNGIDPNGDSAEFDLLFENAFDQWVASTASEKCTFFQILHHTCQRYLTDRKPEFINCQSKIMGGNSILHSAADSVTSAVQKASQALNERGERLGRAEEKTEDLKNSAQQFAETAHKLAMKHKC
UniProt O14662: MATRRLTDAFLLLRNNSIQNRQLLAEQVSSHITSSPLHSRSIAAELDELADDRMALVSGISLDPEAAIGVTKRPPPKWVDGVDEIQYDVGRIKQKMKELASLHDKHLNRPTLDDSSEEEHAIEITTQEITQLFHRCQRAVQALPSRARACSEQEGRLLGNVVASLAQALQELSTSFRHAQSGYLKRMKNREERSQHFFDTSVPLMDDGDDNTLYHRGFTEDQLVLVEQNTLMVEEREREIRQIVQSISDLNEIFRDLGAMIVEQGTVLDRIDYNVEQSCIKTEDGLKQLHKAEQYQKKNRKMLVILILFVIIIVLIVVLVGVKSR
UniProt P42226: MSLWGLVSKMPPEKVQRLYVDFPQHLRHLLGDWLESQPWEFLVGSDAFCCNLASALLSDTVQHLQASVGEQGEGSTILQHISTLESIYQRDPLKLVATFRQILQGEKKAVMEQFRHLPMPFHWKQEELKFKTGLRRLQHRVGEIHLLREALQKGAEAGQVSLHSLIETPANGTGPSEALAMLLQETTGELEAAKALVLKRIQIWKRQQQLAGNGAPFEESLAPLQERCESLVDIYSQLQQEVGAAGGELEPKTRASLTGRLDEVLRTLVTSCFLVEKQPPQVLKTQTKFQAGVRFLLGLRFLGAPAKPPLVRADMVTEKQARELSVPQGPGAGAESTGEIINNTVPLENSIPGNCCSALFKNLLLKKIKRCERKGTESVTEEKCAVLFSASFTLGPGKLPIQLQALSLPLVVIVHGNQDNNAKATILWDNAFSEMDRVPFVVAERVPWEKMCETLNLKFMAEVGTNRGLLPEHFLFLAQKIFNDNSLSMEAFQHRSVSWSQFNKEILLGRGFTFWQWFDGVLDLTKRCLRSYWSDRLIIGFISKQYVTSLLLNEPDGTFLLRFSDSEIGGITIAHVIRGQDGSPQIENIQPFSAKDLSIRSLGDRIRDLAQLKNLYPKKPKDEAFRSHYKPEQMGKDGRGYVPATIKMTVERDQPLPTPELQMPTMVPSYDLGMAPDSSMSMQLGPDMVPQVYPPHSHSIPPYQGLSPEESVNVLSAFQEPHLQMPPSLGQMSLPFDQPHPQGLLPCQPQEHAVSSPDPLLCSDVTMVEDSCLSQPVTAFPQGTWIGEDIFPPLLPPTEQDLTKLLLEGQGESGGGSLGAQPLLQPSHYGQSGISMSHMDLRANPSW
UniProt Q8IX01: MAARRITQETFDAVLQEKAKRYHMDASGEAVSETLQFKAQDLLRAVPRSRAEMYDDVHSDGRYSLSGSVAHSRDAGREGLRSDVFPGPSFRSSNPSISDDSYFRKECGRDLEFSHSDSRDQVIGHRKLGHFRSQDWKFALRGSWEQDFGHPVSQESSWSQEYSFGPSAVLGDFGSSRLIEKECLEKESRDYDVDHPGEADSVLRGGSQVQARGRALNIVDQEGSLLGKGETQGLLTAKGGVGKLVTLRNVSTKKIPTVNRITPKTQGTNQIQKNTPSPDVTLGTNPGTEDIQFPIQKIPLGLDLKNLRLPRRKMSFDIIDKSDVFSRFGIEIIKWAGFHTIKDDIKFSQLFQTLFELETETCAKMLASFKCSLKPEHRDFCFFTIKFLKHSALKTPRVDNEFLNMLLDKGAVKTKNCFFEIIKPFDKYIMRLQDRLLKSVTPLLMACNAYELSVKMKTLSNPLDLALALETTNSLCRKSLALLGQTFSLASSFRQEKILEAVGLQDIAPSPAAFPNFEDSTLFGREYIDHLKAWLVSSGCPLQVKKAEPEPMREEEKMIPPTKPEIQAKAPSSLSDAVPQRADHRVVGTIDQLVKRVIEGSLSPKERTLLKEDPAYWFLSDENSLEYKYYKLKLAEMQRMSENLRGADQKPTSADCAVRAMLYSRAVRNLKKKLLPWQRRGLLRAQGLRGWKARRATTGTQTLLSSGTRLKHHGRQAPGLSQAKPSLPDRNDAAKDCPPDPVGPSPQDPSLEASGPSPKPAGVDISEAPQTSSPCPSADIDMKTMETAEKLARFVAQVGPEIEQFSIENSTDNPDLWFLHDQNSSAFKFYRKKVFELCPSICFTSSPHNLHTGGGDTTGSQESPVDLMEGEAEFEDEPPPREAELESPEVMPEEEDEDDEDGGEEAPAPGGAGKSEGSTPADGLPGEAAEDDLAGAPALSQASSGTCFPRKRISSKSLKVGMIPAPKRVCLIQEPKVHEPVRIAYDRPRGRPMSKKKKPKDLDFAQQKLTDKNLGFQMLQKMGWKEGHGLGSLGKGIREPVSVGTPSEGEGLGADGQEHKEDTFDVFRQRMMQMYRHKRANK
UniProt Q8IYB8: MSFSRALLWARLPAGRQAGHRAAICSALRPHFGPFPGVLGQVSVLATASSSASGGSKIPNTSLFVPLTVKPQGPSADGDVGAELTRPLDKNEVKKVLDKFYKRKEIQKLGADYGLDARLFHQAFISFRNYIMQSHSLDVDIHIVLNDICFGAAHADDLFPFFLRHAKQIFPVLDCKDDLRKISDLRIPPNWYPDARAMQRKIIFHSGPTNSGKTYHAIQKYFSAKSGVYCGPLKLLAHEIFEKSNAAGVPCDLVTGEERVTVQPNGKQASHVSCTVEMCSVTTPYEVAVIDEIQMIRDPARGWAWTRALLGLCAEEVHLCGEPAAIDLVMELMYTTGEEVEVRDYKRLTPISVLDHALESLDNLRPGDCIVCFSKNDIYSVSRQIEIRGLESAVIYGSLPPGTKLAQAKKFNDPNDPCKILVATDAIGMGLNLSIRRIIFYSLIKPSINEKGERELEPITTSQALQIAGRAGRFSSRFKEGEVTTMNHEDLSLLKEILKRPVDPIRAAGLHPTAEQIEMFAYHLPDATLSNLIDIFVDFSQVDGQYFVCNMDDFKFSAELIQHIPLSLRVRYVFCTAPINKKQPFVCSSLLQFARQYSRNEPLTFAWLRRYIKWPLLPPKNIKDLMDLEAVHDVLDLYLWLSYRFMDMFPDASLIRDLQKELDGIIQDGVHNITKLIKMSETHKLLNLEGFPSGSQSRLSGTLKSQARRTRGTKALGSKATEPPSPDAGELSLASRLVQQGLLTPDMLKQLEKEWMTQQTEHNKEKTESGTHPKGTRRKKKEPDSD

Compound: CC1Cc2ccccc2N1C(=O)C1CCCN(C1)C(=O)CCl (mixture of isomers) [TRIM25 ligand 11 (diastereomer mixture)]
Experiment: probe-labelled cysteine peptide fold change vs DMSO (competition) (log2 fold change); higher = less target engagement (more negative = stronger competition)
Conditions: THP-1, incubation time: 4 h
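Further: competitive chemoproteomic profiling in live THP-1 cells with an iodoacetamide desthiobiotin (IA-DTB) probe, comparing probe-labelled peptide intensities in compound-treated cells against DMSO-treated controls.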

Target	probe-labelled cysteine peptide fold change (10 µM)	probe-labelled cysteine peptide fold change (50 µM)
ST14_Q9Y5Y6_602+604_DCDCGLR (UniProt Q9Y5Y6)	0.00859	0.039
STARD3_Q14849_317_TVTACQILQR (UniProt Q14849)	-0.00261	0.195
SRSF10_O75494-3_167_SHSDNDRPNCSWNTQYSSAYYTSR (UniProt O75494)	-0.29	-0.219
STRN_O43815_740_TCIQEFTAHR (UniProt O43815)	0.104	0.246
SUN2_Q9UH99_705_ILTNWGHPEYTCIYR (UniProt Q9UH99)	0.511	0.28
SWAP70_Q9UH65_273_CLFLVK (UniProt Q9UH65)	-0.0592	0.0489
SSSCA1_O60232_73_IYCVACQELDSDVDK (UniProt O60232)	0.104	-0.2
SRPRA_P08240_25_GGLVLWCFQGVSDSCTGPVNALIR (UniProt P08240)	0.115	-0.222
STT3B_Q8TCJ2_715_AGSPTLLNCLMYK (UniProt Q8TCJ2)	0.0198	0.0987
STXBP6_Q8NFX7_144_KPEFINCQSK (UniProt Q8NFX7)	-0.162	-0.0812
STX16_O14662_150_ACSEQEGR (UniProt O14662)	-0.0522	0.0155
STAT6_P42226_452_MCETLNLK (UniProt P42226)	-0.147	-0.0396
SUGP2_Q8IX01_476_TLSNPLDLALALETTNSLCR (UniProt Q8IX01)	0.251	0.285
SUPV3L1_Q8IYB8_372_RLTPISVLDHALESLDNLRPGDCIVCFSK (UniProt Q8IYB8)	-0.19	-0.0601

Single records, as listed above:
STT3B_Q8TCJ2_715_AGSPTLLNCLMYK (UniProt Q8TCJ2) is entered as probe-labelled cysteine peptide fold change (10 µM): 0.0198; probe-labelled cysteine peptide fold change (50 µM): 0.0987
STXBP6_Q8NFX7_144_KPEFINCQSK (UniProt Q8NFX7) is entered as probe-labelled cysteine peptide fold change (10 µM): -0.162; probe-labelled cysteine peptide fold change (50 µM): -0.0812
